From PubChem BioAssay record AID504749 (NCATS, 2011).

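A panel of P. falciparum strains inside erythrocytes is exposed to compounds for three days, then a DNA-binding dye reports the amount of parasite DNA. Each compound was titrated across a series from about 0.000037 to 29 µM. The number is the fitted AC50, the concentration giving a half-maximal change in signal; a lower value means higher potency, whether the curve shows a decrease or an increase. Calls follow the curve class and fit quality: every row here is inconclusive, covering signal-raising curves and weak, poorly fitted, partial or highest-dose-only inhibition curves.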

Values are in nM. All entries here are filed as inconclusive. Only part of the assay is shown, chiefly results filed as inconclusive. A potency from a partial, single-point or poor curve is only a rough figure.

| # | compound | setting | potency (nM) | curve |
|---|---|---|---|---|
| 1 | `C[C@H]1CCC[C@H](O)CCCCCc2cc(O)cc(O)c2C(=O)O1` | CP215 | 16944 | inhibitor, partial curve, poor fit |
| 2 | `C[C@H]1CCC[C@H](O)CCCCCc2cc(O)cc(O)c2C(=O)O1` | GB4 | 10690 | inhibitor, partial curve, poor fit |
| 3 | `C[C@H]1CCC[C@H](O)CCCCCc2cc(O)cc(O)c2C(=O)O1` | CP297 | 2393 | inhibitor, partial curve, poor fit |
| 4 | `C[C@H]1CCC[C@H](O)CCCCCc2cc(O)cc(O)c2C(=O)O1` | CP260 | 11220 | inhibitor, single point |
| 5 | `C[C@H]1CCC[C@H](O)CCCCCc2cc(O)cc(O)c2C(=O)O1` | ECU | 11220 | inhibitor, single point |
| 6 | `C[C@H]1CCC[C@H](O)CCCCCc2cc(O)cc(O)c2C(=O)O1` | CP217 | 10000 | inhibitor, single point |
| 7 | `C[C@H]1CCC[C@H](O)CCCCCc2cc(O)cc(O)c2C(=O)O1` | CP191 | 17782 | inhibitor, single point |
| 8 | `C[C@H]1CCC[C@H](O)CCCCCc2cc(O)cc(O)c2C(=O)O1` | N140 | 17782 | inhibitor, single point |
| 9 | `C[C@H]1CCC[C@H](O)CCCCCc2cc(O)cc(O)c2C(=O)O1` | CP237 | 17782 | inhibitor, single point |
| 10 | `C[C@H]1CCC[C@H](O)CCCCCc2cc(O)cc(O)c2C(=O)O1` | AS120 | 17782 | inhibitor, single point |
| 11 | `C[C@H]1CCC[C@H](O)CCCCCc2cc(O)cc(O)c2C(=O)O1` | P94_40 | 11220 | inhibitor, single point |
| 12 | `C[C@H]1CCC[C@H](O)CCCCCc2cc(O)cc(O)c2C(=O)O1` | PC26 | 6746 | inhibitor, partial curve |
| 13 | `C[C@H]1CCC[C@H](O)CCCCCc2cc(O)cc(O)c2C(=O)O1` | CP194 | 6746 | inhibitor, partial curve, poor fit |
| 14 | `C[C@H]1CCC[C@H](O)CCCCCc2cc(O)cc(O)c2C(=O)O1` | CP250 | 10000 | inhibitor, single point |
| 15 | `C[C@H]1CCC[C@H](O)CCCCCc2cc(O)cc(O)c2C(=O)O1` | ICS | 10000 | inhibitor, partial curve |
| 16 | `C[C@H]1CCC[C@H](O)CCCCCc2cc(O)cc(O)c2C(=O)O1` | DIV17 | 15101 | inhibitor, single point |
| 17 | `C[C@H]1CCC[C@H](O)CCCCCc2cc(O)cc(O)c2C(=O)O1` | DIV14 | 15101 | inhibitor, single point |
| 18 | `C[C@@H](NCCCc1cccc(C(F)(F)F)c1)c1cccc2ccccc12` | CP250 | 11220 | inhibitor, single point |
| 19 | `C[C@@H](NCCCc1cccc(C(F)(F)F)c1)c1cccc2ccccc12` | CP329 | 15101 | inhibitor, single point |
| 20 | `C[C@@H](NCCCc1cccc(C(F)(F)F)c1)c1cccc2ccccc12` | CP315 | 19011 | inhibitor, single point |
| 21 | `C[C@@H](NCCCc1cccc(C(F)(F)F)c1)c1cccc2ccccc12` | CP266 | 19011 | inhibitor, single point |
| 22 | `C[C@@H](NCCCc1cccc(C(F)(F)F)c1)c1cccc2ccccc12` | CP335 | 16944 | inhibitor, single point |
| 23 | `C[C@@H](NCCCc1cccc(C(F)(F)F)c1)c1cccc2ccccc12` | CP191 | 11220 | inhibitor, single point |
| 24 | `C[C@@H](NCCCc1cccc(C(F)(F)F)c1)c1cccc2ccccc12` | CP256 | 10000 | inhibitor, single point |

Repeated from the top, 3 entries:

With C[C@H]1CCC[C@H](O)CCCCCc2cc(O)cc(O)c2C(=O)O1 [CP215] the assay gave potency 16944 nM (inhibitor, partial curve, poor fit).
With C[C@H]1CCC[C@H](O)CCCCCc2cc(O)cc(O)c2C(=O)O1 [GB4] the assay gave potency 10690 nM (inhibitor, partial curve, poor fit).
With C[C@H]1CCC[C@H](O)CCCCCc2cc(O)cc(O)c2C(=O)O1 [CP297] the assay gave potency 2393 nM (inhibitor, partial curve, poor fit).